Assay results reported in patent US20080081039A1, “Inorganic Selenium For Treatment Of Cancer” (priority 2004, published 2008).
At least one structure is not confirmed: it was looked up by name or label, or the drawing left a doubt.

Experiments:
[1] = independent of caspase function; cited from earlier work
Akt = assay: Activation of Akt by different selenium compounds in PC-3 cells, immunoblot; format: cell-based, human; conditions: 500 μM, 1 hour, serum starved PC-3 cells
Text: Signal intensities from the developed films were scanned and intensities of active Akt correlated to total Akt levels were plotted.

O=[Se](O)O [sodium selenite]
cell cycle arrest and apoptosis [1]: induces S-phase arrest and apoptotic DNA fragmentation
activation of Akt at high dose (Akt): unable to inhibit activation of Akt
